Results on five molecules are retold here after patent publication US20150284465A1.

The chains behind the UniProt entries cited, without tags or fusion partners. Where a name states a change or a piece, a line headed by the entry shows the natural chain unless it says otherwise. Residues count along the entry.
UniProt P08887, residues 20-358: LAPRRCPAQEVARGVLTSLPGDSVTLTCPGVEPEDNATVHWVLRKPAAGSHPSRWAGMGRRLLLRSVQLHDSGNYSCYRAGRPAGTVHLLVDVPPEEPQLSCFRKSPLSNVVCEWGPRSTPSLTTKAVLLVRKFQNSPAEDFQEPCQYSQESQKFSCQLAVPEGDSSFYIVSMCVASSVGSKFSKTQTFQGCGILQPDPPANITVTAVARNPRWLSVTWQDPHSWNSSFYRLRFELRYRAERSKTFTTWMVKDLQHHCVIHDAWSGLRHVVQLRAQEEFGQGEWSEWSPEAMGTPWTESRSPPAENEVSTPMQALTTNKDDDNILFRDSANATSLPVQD
UniProt P55899: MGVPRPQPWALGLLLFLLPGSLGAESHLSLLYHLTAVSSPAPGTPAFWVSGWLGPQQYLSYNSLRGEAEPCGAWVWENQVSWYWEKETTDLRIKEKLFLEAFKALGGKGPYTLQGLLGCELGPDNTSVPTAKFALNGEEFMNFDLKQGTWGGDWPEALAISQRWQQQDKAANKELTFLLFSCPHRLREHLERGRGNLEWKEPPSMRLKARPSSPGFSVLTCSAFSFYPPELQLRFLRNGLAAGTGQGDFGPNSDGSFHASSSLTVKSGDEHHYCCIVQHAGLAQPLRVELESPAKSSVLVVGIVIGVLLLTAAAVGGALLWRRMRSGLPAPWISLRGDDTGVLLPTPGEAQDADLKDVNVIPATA

Results are given in words; binding and its absence hold for the method and conditions named. Some entries that bind do so weakly or less than the wild type.

For experiment [1], the target named is recombinant human IL-6R sR (R&D systems) (human) (UniProt P08887). Description: SPR (Biacore T100), antibody captured on Protein A, rhIL-6sR as analyte, 25 C. (Surface plasmon resonance follows binding to a sensor surface in real time, without labels.)
The target of experiment [2] is soluble human FcRn (complex of FcRn and β2-microglobulin) (human) (UniProt P55899). Description: SPR (Biacore 3000), human FcRn as analyte, pH 6.0.

B1: RD-6 (antibody, V domains shown)
VH: QVQLQESGPGLVRPSQTLSLTCTVSGYSITSDHAWSWVRQPPGRGLEWIGYISYSGITTYNPSLKSRVTMLRDTSKNQFSLRLSSVTAADTAVYYCARLLARATAMDYWGQGSLVTVSS
VL: DIQMTQSPSSLSASVGDRVTITCRASQDISSYLNWYQQKPGKAPKLLIYYTSRLHSGVPSRFSGSGSGTDFTFTISSLQPEDIATYYCQQGNTLPYTFGQGTKVEIK
As for B1, the binding result in experiment [1] is on record as “binds”.

B2: RDC-4 (antibody, V domains shown)
VH: QVQLQESGPGLVRPSQTLSLTCTVSGYSITSDHAWSWVRQPPGRGLEWIGYISYSGITTYNPSLKSRVTMLRDTSKNQFSLRLSSVTAADTAVYYCARTLARATAMDYWGQGSLVTVSS
VL: DIQMTQSPSSLSASVGDRVTITCRASQDISSYLNWYQQKPGKAPKLLIYYTSRLHSGVPSRFSGSGSGTDFTFTISSLQPEDIATYYCQQGNTLPYTFGQGTKVEIK
Take B2: the binding entry in experiment [1] was “binds”.

B3: RDC-8 (antibody, V domains shown)
VH: QVQLQESGPGLVRPSQTLSLTCTVSGYSITSDHAWSWVRQPPGRGLEWIGYISYSGITTYNPSLKSRVTMLRDTSKNQFSLRLSSVTAADTAVYYCARLLARITAMDYWGQGSLVTVSS
VL: DIQMTQSPSSLSASVGDRVTITCRASQDISSYLNWYQQKPGKAPKLLIYYTSRLHSGVPSRFSGSGSGTDFTFTISSLQPEDIATYYCQQGNTLPYTFGQGTKVEIK
Consider B3, for which, in experiment [1], the binding entry is given as “binds”.

B4: RDC-7 (antibody, V domains shown)
VH: QVQLQESGPGLVRPSQTLSLTCTVSGYSITSDHAWSWVRQPPGRGLEWIGYISYSGITTYNPSLKSRVTMLRDTSKNQFSLRLSSVTAADTAVYYCARTLARITAMDYWGQGSLVTVSS
VL: DIQMTQSPSSLSASVGDRVTITCRASQDISSYLNWYQQKPGKAPKLLIYYTSRLHSGVPSRFSGSGSGTDFTFTISSLQPEDIATYYCQQGNTLPYTFGQGTKVEIK
For B4, the binding result in experiment [1] is “binds”.

B5: anti-IL-31 receptor antibody H0L0 with M58 constant region (antibody)
heavy: QVQLVQSGAEVKKPGASVKVSCKASGYTFTGYIMNWVRQAPGQGLEWMGLINPYNGGTSYNQKFKGRVTITADESTSTAYMELSSLRSEDTAVYYCARDGYDDGPYTMDYWGQGTLVTVSASTKGPSVFPLAPSSKSTSGGTAALGCLVKDYFPEPVTVSWNSGALTSGVHTFPAVLQSSGLYSLSSVVTVPSSNFGTQTYTCNVDHKPSNTKVDKTVERKSCVECPPCPAPPVAGPSVFLFPPKPKDTLMISRTPEVTCVVVDVSQEDPEVQFNWYVDGVEVHNAKTKPREEQFNSTFRVVSVLTVVHQDWLNGKEYKCKVSNKGLPAPIEKTISKTKGQPREPQVYTLPPSQEEMTKNQVSLTCLVKGFYPSDIAVEWESNGQPENNYKTTPPMLDSDGSFFLYSKLTVDKSRWQEGNVFSCSVMHEALHNHYTQKSLSLSP
VL: DIQMTQSPSSLSASVGDRVTITCRTSENIYSFLAWYQQKPGKAPKLLIYNAKTLAKGVPSRFSGSGSGTDFTLTISSLQPEDFATYYCQHHYESPLTFGGGTKVEIK
Turning to B5, the binding entry in experiment [2] is listed as “binds”.
